Measurements taken from the supplement of paper PMC4862054.
Most values lie at the level of the controls, where differences are scatter.

Tests used:
Assay in all cases: normalised response (% of control), CellTox Green; higher = less cell death (100 = DMSO, 0 = benzethonium chloride kill control)
Details in all cases: incubation time: 72 h
BT-474 = tested on: BT-474
Experimental: (§1)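 DSRT, 72 h incubation, CellTox Green / CellTiter-Glo readout. Signal is normalised to DMSO and benzethonium chloride controls. Value is the normalised response at dose 2.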

MCF-10A = tested on: MCF-10A
Experimental: as §1

HCC1599 = tested on: HCC1599
Experimental: as §1

BT-549 = tested on: BT-549
Experimental: as §1

CAL-51 = tested on: CAL-51
Experimental: as §1

HCC1143 = tested on: HCC1143
Experimental: as §1

MDA-MB-453 = tested on: MDA-MB-453
Experimental: as §1

HDQ-P1 = tested on: HDQ-P1
Experimental: as §1

DU-4475 = tested on: DU-4475
Experimental: as §1

MDA-MB-436 = tested on: MDA-MB-436
Experimental: as §1

CAL-120 = tested on: CAL-120
Experimental: as §1

CAL-85-1 = tested on: CAL-85-1
Experimental: as §1

CAL-148 = tested on: CAL-148
Experimental: as §1

HCC1937 = tested on: HCC1937
Experimental: as §1

MFM-223 = tested on: MFM-223
Experimental: as §1

MDA-MB-231 = tested on: MDA-MB-231
Experimental: as §1

MDA-MB-468 = tested on: MDA-MB-468
Experimental: as §1

Hs578T = tested on: Hs578T
Experimental: as §1

`C[C@@]1(C(=O)Nc2ccc(F)nc2)CCCN1c1nc(Nc2cc(C3CC3)n[nH]2)c2cccn2n1` (10 nM) was tested, and the normalised response (BT-474) was 98.7%, the normalised response (MCF-10A) was 97.5% and the normalised response (HCC1599) was 102%. For the same compound, the normalised response (BT-549) was 98.9%, the normalised response (CAL-51) was 87.3% and the normalised response (HCC1143) was 111%. For the same compound, the normalised response (MDA-MB-453) was 101%, the normalised response (HDQ-P1) was 105% and the normalised response (DU-4475) was 104%. For the same compound, the normalised response (MDA-MB-436) was 103%, the normalised response (CAL-120) was 103% and the normalised response (CAL-85-1) was 93.5%. For the same compound, the normalised response (CAL-148) was 95.7%, the normalised response (HCC1937) was 96.9% and the normalised response (MFM-223) was 101%. It also gave a normalised response (MDA-MB-231) of 95.2% and a normalised response (MDA-MB-468) of 60.2%.

In the case of `CN(C)c1nc(N(C)C)nc(N(C)C)n1` [Altretamine] (10 nM), the normalised response (BT-474) is reported as 103%, the normalised response (HCC1599) is reported as 101% and the normalised response (BT-549) is reported as 107%. The normalised response (CAL-51) was 103%, the normalised response (Hs578T) was 123% and the normalised response (HCC1143) was 111%. The normalised response (MDA-MB-453) was 95.3%, the normalised response (HDQ-P1) was 116% and the normalised response (DU-4475) was 98.3%. For the same compound, the normalised response (MDA-MB-436) was 98.7%, the normalised response (CAL-120) was 96.2% and the normalised response (CAL-85-1) was 96.7%. It also gave a normalised response (CAL-148) of 102%, a normalised response (HCC1937) of 113% and a normalised response (MFM-223) of 98.9%. The normalised response (MDA-MB-231) was 111% and the normalised response (MDA-MB-468) was 95%.

`CCNC(=O)CCC/C=C\C[C@@H]1[C@@H](/C=C/[C@@H](O)CCc2ccccc2)[C@H](O)C[C@@H]1O` [Bimatoprost] (5.5 nM) gave a normalised response (BT-474) of 99%, a normalised response (MCF-10A) of 100% and a normalised response (HCC1599) of 101%. For the same compound, the normalised response (BT-549) was 100%, the normalised response (CAL-51) was 83% and the normalised response (Hs578T) was 108%. It also gave a normalised response (HCC1143) of 112%, a normalised response (MDA-MB-453) of 89.9% and a normalised response (HDQ-P1) of 104%. The normalised response (DU-4475) was 99%, the normalised response (CAL-120) was 97.9% and the normalised response (CAL-85-1) was 100%. For the same compound, the normalised response (CAL-148) was 102%, the normalised response (HCC1937) was 100% and the normalised response (MFM-223) was 99%. It also gave a normalised response (MDA-MB-231) of 99.9% and a normalised response (MDA-MB-468) of 79.6%.

For `O=c1[nH]c(=O)n([C@H]2C[C@H](O)[C@@H](CO)O2)cc1F` [Floxuridine] (10 nM), the normalised response (BT-474) was 102%, the normalised response (HCC1599) was 124% and the normalised response (BT-549) was 104%. It also gave a normalised response (CAL-51) of 124%, a normalised response (Hs578T) of 125% and a normalised response (HCC1143) of 116%. The normalised response (MDA-MB-453) was 107%, the normalised response (HDQ-P1) was 113% and the normalised response (DU-4475) was 116%. The normalised response (MDA-MB-436) was 75.7%, the normalised response (CAL-120) was 102% and the normalised response (CAL-85-1) was 99.2%. For the same compound, the normalised response (CAL-148) was 108%, the normalised response (HCC1937) was 104% and the normalised response (MFM-223) was 105%. The normalised response (MDA-MB-231) was 118% and the normalised response (MDA-MB-468) was 106%.

In the case of `Cc1cccc(-c2nn3c(c2-c2ccnc4ccc(C(N)=O)cc24)CCC3)n1` [Galunisertib] (1 nM), the normalised response (BT-474) is reported as 104%, the normalised response (MCF-10A) is reported as 80.3% and the normalised response (HCC1599) is reported as 117%. It also gave a normalised response (BT-549) of 110%, a normalised response (CAL-51) of 91.5% and a normalised response (Hs578T) of 118%. The normalised response (HCC1143) was 59.8%, the normalised response (MDA-MB-453) was 108% and the normalised response (DU-4475) was 117%. It also gave a normalised response (MDA-MB-436) of 116%, a normalised response (CAL-120) of 102% and a normalised response (CAL-85-1) of 97.4%. For the same compound, the normalised response (CAL-148) was 109%, the normalised response (MFM-223) was 96.9% and the normalised response (MDA-MB-231) was 93.4%. The normalised response (MDA-MB-468) was 122%.

With `C=CCc1cccc(/C=N/NC(=O)CN2CCN(Cc3ccccc3)CC2)c1O` [PAC-1] (10 nM) the normalised response (BT-474) was 83.6%, the normalised response (MCF-10A) was 110% and the normalised response (HCC1599) was 101%. It also gave a normalised response (BT-549) of 97%, a normalised response (CAL-51) of 108% and a normalised response (HCC1143) of 97.3%. For the same compound, the normalised response (MDA-MB-453) was 96.9%, the normalised response (HDQ-P1) was 100% and the normalised response (DU-4475) was 101%. For the same compound, the normalised response (MDA-MB-436) was 107%, the normalised response (CAL-120) was 97.7% and the normalised response (CAL-85-1) was 98%. For the same compound, the normalised response (CAL-148) was 53.8%, the normalised response (HCC1937) was 116% and the normalised response (MFM-223) was 77.7%. It also gave a normalised response (MDA-MB-231) of 118% and a normalised response (MDA-MB-468) of 78.5%.

With `COc1cc([C@@H]2c3cc4c(cc3[C@@H](O[C@@H]3O[C@@H]5CO[C@@H](c6cccs6)O[C@H]5[C@H](O)[C@H]3O)[C@H]3COC(=O)[C@H]23)OCO4)cc(OC)c1O` [Teniposide] (10 nM) the normalised response (BT-474) was 104%, the normalised response (MCF-10A) was 62.5% and the normalised response (HCC1599) was 96.6%. It also gave a normalised response (BT-549) of 99.1%, a normalised response (CAL-51) of 106% and a normalised response (Hs578T) of 119%. It also gave a normalised response (HCC1143) of 107%, a normalised response (MDA-MB-453) of 97.5% and a normalised response (HDQ-P1) of 114%. It also gave a normalised response (DU-4475) of 87.7%, a normalised response (MDA-MB-436) of 71.2% and a normalised response (CAL-120) of 102%. The normalised response (CAL-85-1) was 103%, the normalised response (MFM-223) was 102% and the normalised response (MDA-MB-231) was 99.1%. For the same compound, the normalised response (MDA-MB-468) was 117%.

`O=C(c1ccc(C(=O)N2CCC(N3CCCC3)CC2)c(Nc2ccccc2)c1)N1CCC(N2CCCC2)CC1` [UNC1215] (30 nM) showed a normalised response (BT-474) of 100%, a normalised response (MCF-10A) of 82.1% and a normalised response (HCC1599) of 96.5%. The normalised response (BT-549) was 94.9%, the normalised response (CAL-51) was 76.5% and the normalised response (HCC1143) was 107%. It also gave a normalised response (DU-4475) of 94.4%, a normalised response (MDA-MB-436) of 81.2% and a normalised response (CAL-120) of 90.8%. For the same compound, the normalised response (CAL-85-1) was 105%, the normalised response (CAL-148) was 100% and the normalised response (HCC1937) was 107%. It also gave a normalised response (MFM-223) of 63%, a normalised response (MDA-MB-231) of 95.6% and a normalised response (MDA-MB-468) of 87.6%.

With `O=C(CCCCCCC(=O)Nc1ccccc1)NO` [Vorinostat] (10 nM) the normalised response (BT-474) was 100%, the normalised response (MCF-10A) was 103% and the normalised response (HCC1599) was 93.9%. For the same compound, the normalised response (BT-549) was 96.8%, the normalised response (CAL-51) was 112% and the normalised response (Hs578T) was 118%. For the same compound, the normalised response (MDA-MB-453) was 81.7%, the normalised response (HDQ-P1) was 98.7% and the normalised response (DU-4475) was 96.9%. For the same compound, the normalised response (CAL-120) was 98.1%, the normalised response (CAL-85-1) was 99% and the normalised response (CAL-148) was 102%. It also gave a normalised response (HCC1937) of 87.2%, a normalised response (MFM-223) of 103% and a normalised response (MDA-MB-231) of 103%. The normalised response (MDA-MB-468) was 63.7%.

For `Oc1nc(-c2ccc(C(F)(F)F)cc2)nc2c1CSCC2` [XAV-939] (10 nM), the normalised response (BT-474) was 102%, the normalised response (MCF-10A) was 99.2% and the normalised response (HCC1599) was 90.9%. It also gave a normalised response (BT-549) of 99%, a normalised response (CAL-51) of 89.7% and a normalised response (Hs578T) of 117%. For the same compound, the normalised response (HCC1143) was 110%, the normalised response (MDA-MB-453) was 101% and the normalised response (HDQ-P1) was 112%. The normalised response (DU-4475) was 101%, the normalised response (MDA-MB-436) was 99.5% and the normalised response (CAL-120) was 94.8%. The normalised response (CAL-85-1) was 101%, the normalised response (CAL-148) was 68.2% and the normalised response (MFM-223) was 102%. It also gave a normalised response (MDA-MB-231) of 95.8% and a normalised response (MDA-MB-468) of 141%.
